The chains are these.
B1: humanized 3A4 antibody Lh1Hh2 (antibody, human IgG1, kappa, V domains shown)
VH: QIQLVQSGAEVKKPGASVKVSCKASGYTFTDDYMSWVRQAPGQGLEWMGDINPYNGDTNYNQKFKGRVTITADKSTSTAYMELSSLRSEDTAVYYCARDPGAMDYWGQGTLVTVSS
VL: DIVMTQTPLSLPVTPGEPASISCRSSQSLLHSNGNTYLEWYLQKPGQSPQLLIYTVSNRFSGVPDRFSGSGSGTDFTLKISRVEAEDVGVYYCFQGSHVPLTFGQGTKLEIKR
notes: human IgG1 kappa
B2: humanized 3A4 antibody Lh1Hh1 (antibody, human IgG1, kappa, V domains shown)
VH: B1 VH with I2V, K74T
VL: B1 VL
notes: 100% humanized frameworks; human IgG1 kappa; also called H1L1
B3: humanized 3A4 antibody Lh1Hh3 (antibody, human IgG1, kappa, V domains shown)
VH: B1 VH with M48I, V68A, I70L, A72V
VL: B1 VL
notes: human IgG1 kappa
B4: humanized 3A4 antibody Lh1Hh4 (antibody, human IgG1, kappa, V domains shown)
VH: B1 VH with R38K, M48I, R67K, V68A, I70L, A72V
VL: B1 VL
notes: human IgG1 kappa
B5: 3A4 chimeric anti-KAAG1 antibody (mouse-human chimeric IgG1) (antibody, V domains shown)
VH: QIQLVQSGPEMVKPGASVKMSCKASGYTFTDDYMSWVKQSHGKSLEWIGDINPYNGDTNYNQKFKGKAILTVDKSSSTAYMQLNSLTSEDSAVYYCARDPGAMDYWGQGTSVTVSS
VL: DVVMTQTPLSLAVSLGDQASISCRSSQSLLHSNGNTYLEWYLQKPGQSPKLLIHTVSNRFSGVPDRFSGSGSGTDFTLKISRVEAEDLGVYYCFQGSHVPLTFGAGTRLELKR
notes: also called chimeric 3A4; murine 3A4
B6: 3A4 recombinant monoclonal Fab (from Omniclonal AL0003 A2ZB, prepared from E. coli) (Fab, V domains shown)
VH: B5 VH
VL: DVVMTQTPLSLAVSLGDQASISCRSSQSLLHSNGNTYLEWYLQKPGQSPKLLIHTVSNRFSGVPDRFSGSGSGTDFTLKISRVEAEDLGVYYCFQGSHVPLTFGAGTRLELK
B7: humanized 3A4 antibody Lh2Hh1 (antibody, human IgG1, kappa, V domains shown)
VH: B1 VH with I2V, K74T
VL: B1 VL with I2V, Q50K
notes: human IgG1 kappa
B8: humanized 3A4 antibody Lh2Hh3 (antibody, human IgG1, kappa, V domains shown)
VH: B1 VH with M48I, V68A, I70L, A72V
VL: B1 VL with I2V, Q50K
notes: human IgG1 kappa
B9: humanized 3A4 antibody Lh2Hh4 (antibody, human IgG1, kappa, V domains shown)
VH: B1 VH with R38K, M48I, R67K, V68A, I70L, A72V
VL: B1 VL with I2V, Q50K
notes: human IgG1 kappa; 10 mouse framework residues retained; also called H4L2
B10: humanized 3A4 antibody Lh2Hh2 (antibody, human IgG1, kappa, V domains shown)
VH: B1 VH
VL: B1 VL with I2V, Q50K
notes: human IgG1 kappa

Among the data in patent US20210054067A1 (ALETHIA BIOTHERAPEUTICS, published 2021) are binding values, retold here.

Where a chain is given by its changes, count along the chain named. These are yes or no findings as the source states them, for the method shown. Some entries that bind do so weakly or less than the wild type.

In the first test the target is T1, recombinant human KAAG1 (purified protein) (human) (UniProt Q9UBP8).
T1 sequence: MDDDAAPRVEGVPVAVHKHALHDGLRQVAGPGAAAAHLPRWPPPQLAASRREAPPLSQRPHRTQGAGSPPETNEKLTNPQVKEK
In words: ELISA: recombinant human KAAG1 coated on the plate, HRP anti-human antibody, OD450 (L1 series). (ELISA stands for enzyme-linked immunosorbent assay.)
Consider B1, for which the binding entry is listed as “binds”.

For B2, the binding result is “binds”.

As to B3, the binding entry is on record as “binds”.

On to B4, for which the binding result was “binds”.

Regarding B5, the binding entry is listed as “binds”.

In the next test the target is T1, recombinant human KAAG1 (purified protein) (human). Briefly: screen of 96 recombinant monoclonal Fabs.
Turning to B6, the binding entry is recorded as “binds”.

The target is the same in another test. Briefly: SPR (ProteOn XPR36): purified 3A4 captured on anti-human IgG Fc surface, KAAG1 as analyte; bar chart of affinity constants.
On to B5, for which the binding entry is on record as “binds”.

The target is the same in the next test. Briefly: SPR (ProteOn XPR36): purified 3A4 captured on anti-human IgG Fc surface, KAAG1 as analyte; bar chart of association rate constants.
Regarding B5, the binding result was “binds”.

The target is the same in a further test. In words: SPR (ProteOn XPR36).
For B1, the binding entry is given as “binds”.

For the molecule B2, the binding entry is recorded as “binds”.

Regarding B7, the binding entry is given as “binds”.

Consider B8, for which the binding result is recorded as “binds”.

In the case of B3, the binding entry was “binds”.

On to B4, for which the binding entry is “binds”.

As to B9, the binding result is given as “binds”.

Regarding B10, the binding entry was “binds”.

The next test has the same target. Briefly: ELISA, recombinant human KAAG1 coated on plate.
Consider B1, for which the binding entry was “binds”.

For the molecule B2, the binding result is reported as “binds”.

Regarding B7, the binding result is recorded as “binds”.

For B8, the binding entry is “binds”.

Consider B3, for which the binding entry was “binds”.

Consider B4, for which the binding result is given as “binds”.

As for B9, the binding entry is given as “binds”.

For the molecule B10, the binding result was “binds”.

Regarding B5, the binding result is “binds”.

The target is the same in the next test. In words: SPR (ProteOn XPR36): purified 3A4 captured on anti-human IgG Fc surface, KAAG1 as analyte; bar chart of dissociation rate constants.
With B5, the binding entry is on record as “binds”.

For a further test the target is unchanged. In words: ELISA: recombinant human KAAG1 coated on the plate, HRP anti-human antibody, OD450 (L2 series).
Take B7: the binding result was “binds”.

B8: the binding entry is listed as “binds”.

For B9, the binding result is given as “binds”.

In the case of B10, the binding result is listed as “binds”.

Turning to B5, the binding entry is reported as “binds”.
